Laboratory results: paper PMC10578308 (ACS Medicinal Chemistry Letters, 2023)

Experiments:
[1] = general procedure: Fmoc solid-phase peptide synthesis; (2-Cl)Trt chloride resin; HATU/DIEA; EDCI·HCl/HOAt/DIEA for macrocyclisation; settings: whole synthesis; for isolated yield: from resin
[2] = general procedure: Fmoc solid-phase peptide synthesis; peptidyl resin S6 (2-Cl-Trt); HATU/DIEA; EDCI·HCl/HOAt/DIEA for macrocyclisation; settings: whole synthesis, scale 0.0500 mmol

Substance | isolated yield ([1]; scale 0.100 mmol) [%] | isolated mass ([1]; scale 0.100 mmol) [mg] | other results
PEPTIDE1{[Me2Val].[D-Hva].[MeAla].[MeLeu].[MeDab].[MeAla].[MeIle].A.[MeLeu].[Tyr(Me)].[D-MeAla]}$PEPTIDE1,PEPTIDE1,5:R3-11:R2$$$V2.0 | 8 | 10.4 | –
PEPTIDE1{[Me2Val].[D-Hva].[MeAla].[MeLeu].[MeDap(Me)].[MeAla].[MeIle].A.[MeLeu].[Tyr(Me)].[D-MeAla]}$PEPTIDE1,PEPTIDE1,5:R3-11:R2$$$V2.0 | 2 | 3.1 | –
PEPTIDE1{[Me2Val].[D-Hva].[MeAla].[MeLeu].[MeDap].[MeAla].[MeIle].A.[MeLeu].[Tyr(Me)].[D-MeAla]}$PEPTIDE1,PEPTIDE1,5:R3-11:R2$$$V2.0 | 5 | 7.0 | –
PEPTIDE1{[Me2Val].[D-Hva].[MeAla].[MeLeu].[MeLys(Me)-3S,6R-Me2-4E-ene].[MeAla].[MeIle].A.[MeLeu].[Tyr(Me)]}$PEPTIDE1,PEPTIDE1,5:R3-10:R2$$$V2.0 | – | – | isolated yield ([1]; scale 0.050 mmol): 1%; isolated mass ([1]; scale 0.050 mmol): 1.2 mg
PEPTIDE1{[Me2Val].[D-Hva].[MeAla].[MeLeu].[MeLys(Me)-3S,6R-Me2].[MeAla].[MeIle].A.[MeLeu].[Tyr(Me)]}$PEPTIDE1,PEPTIDE1,5:R3-10:R2$$$V2.0 | – | – | isolated yield ([1]; scale 0.0500 mmol): 3%; isolated mass [2]: 3.7 mg
PEPTIDE1{[Me2Val].[D-Hva].[MeSer(Me)].[MeLeu].[MeDab].[MeSer(Me)].[MeIle].A.[MeLeu].[Bph].[D-MeAla]}$PEPTIDE1,PEPTIDE1,5:R3-11:R2$$$V2.0 | 7 | 10.5 | –
PEPTIDE1{[Me2Val].[D-Hva].[MeSer(Me)].[MeLeu].[MeDab].[MeSer(Me)].[MeIle].A.[MeLeu].[Tyr(Me)].[D-MeAla]}$PEPTIDE1,PEPTIDE1,5:R3-11:R2$$$V2.0 | 11 | 15.0 | –

HELM strings list residues between dots; [ac] is acetyl, [am] amide, other brackets name non-standard units.
